The target in the experiment is HA-human MLL1N truncated protein (HA-MLL1N_(1-1395)) (human) (UniProt Q03164). Briefly: co-IP; anti-HA antibody or control IgG on HEK293T cells transfected with HA-MLL1N_(1-1395); cells treated with DMSO or DS-1594a·succinate (10, 30, 100, 300, 1000 nM); endogenous Menin detected.

By UniProt entry, the sequences of proteins in these tests, tags left out. Residues count along the entry.
UniProt Q03164, residues 1-1395: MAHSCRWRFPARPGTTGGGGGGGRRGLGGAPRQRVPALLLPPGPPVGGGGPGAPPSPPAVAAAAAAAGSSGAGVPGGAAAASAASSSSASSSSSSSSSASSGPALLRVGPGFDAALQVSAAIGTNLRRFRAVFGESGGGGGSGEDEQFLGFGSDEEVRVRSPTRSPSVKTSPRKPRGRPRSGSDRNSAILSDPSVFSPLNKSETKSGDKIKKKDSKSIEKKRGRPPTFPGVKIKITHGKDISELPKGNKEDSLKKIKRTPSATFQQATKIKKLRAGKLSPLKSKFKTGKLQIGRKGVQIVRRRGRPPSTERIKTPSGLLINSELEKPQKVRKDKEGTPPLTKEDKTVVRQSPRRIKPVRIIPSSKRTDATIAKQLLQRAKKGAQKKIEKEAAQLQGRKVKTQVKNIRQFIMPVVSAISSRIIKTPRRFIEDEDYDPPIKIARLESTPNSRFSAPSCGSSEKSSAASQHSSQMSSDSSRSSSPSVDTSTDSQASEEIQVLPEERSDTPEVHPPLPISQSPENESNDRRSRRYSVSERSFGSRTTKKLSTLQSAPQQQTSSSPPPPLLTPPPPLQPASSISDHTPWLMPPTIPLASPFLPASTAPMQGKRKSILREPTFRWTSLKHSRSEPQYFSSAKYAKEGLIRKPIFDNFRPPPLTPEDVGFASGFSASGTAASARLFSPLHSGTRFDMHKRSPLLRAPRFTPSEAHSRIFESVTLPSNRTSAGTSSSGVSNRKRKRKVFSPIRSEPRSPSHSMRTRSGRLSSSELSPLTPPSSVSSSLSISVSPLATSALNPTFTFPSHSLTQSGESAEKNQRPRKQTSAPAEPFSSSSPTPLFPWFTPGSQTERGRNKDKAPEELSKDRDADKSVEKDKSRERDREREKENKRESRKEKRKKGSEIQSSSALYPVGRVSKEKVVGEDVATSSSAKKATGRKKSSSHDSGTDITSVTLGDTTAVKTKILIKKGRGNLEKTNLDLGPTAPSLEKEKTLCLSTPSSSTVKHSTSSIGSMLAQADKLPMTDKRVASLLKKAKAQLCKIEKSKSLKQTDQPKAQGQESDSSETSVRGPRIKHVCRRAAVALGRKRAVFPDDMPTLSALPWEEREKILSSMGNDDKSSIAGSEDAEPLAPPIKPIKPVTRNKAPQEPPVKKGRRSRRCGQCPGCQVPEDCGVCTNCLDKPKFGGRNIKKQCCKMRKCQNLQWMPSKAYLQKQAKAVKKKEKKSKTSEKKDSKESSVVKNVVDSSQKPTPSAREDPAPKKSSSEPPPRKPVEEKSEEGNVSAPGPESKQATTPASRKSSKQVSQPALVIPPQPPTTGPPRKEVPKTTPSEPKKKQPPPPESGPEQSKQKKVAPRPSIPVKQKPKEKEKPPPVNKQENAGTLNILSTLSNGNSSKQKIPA

No constants are given. Whether binding was seen depends on the method and setting. In cells and extracts the contact can be indirect. Some entries that bind do so weakly or less than the wild type.

B1: endogenous Menin protein (protein, UniProt O00255 1-610)
chain: MGLKAAQKTLFPLRSIDDVVRLFAAELGREEPDLVLLSLVLGFVEHFLAVNRVIPTNVPELTFQPSPAPDPPGGLTYFPVADLSIIAALYARFTAQIRGAVDLSLYPREGGVSSRELVKKVSDVIWNSLSRSYFKDRAHIQSLFSFITGTKLDSSGVAFAVVGACQALGLRDVHLALSEDHAWVVFGPNGEQTAEVTWHGKGNEDRRGQTVNAGVAERSWLYLKGSYMRCDRKMEVAFMVCAINPSIDLHTDSLELLQLQQKLLWLLYDLGHLERYPMALGNLADLEELEPTPGRPDPLTLYHKGIASAKTYYRDEHIYPYMYLAGYHCRNRNVREALQAWADTATVIQDYNYCREDEEIYKEFFEVANDVIPNLLKEAASLLEAGEERPGEQSQGTQSQGSALQDPECFAHLLRFYDGICKWEEGSPTPVLHVGWATFLVQSLGRFEGQVRQKVRIVSREAEAAEAEEPWGEEAREGRRRGPRRESKPEEPPPPKKPALDKGLGTGQGAVSGPPRKPPGTVAGTARGPEGGSTAQVPAPTASPPPEGPVLTFQSEKMKGMKELLVATKINSSAIKLQLTAQSQVQMKKQKVSTPSDYTLSFLKRQRKGL
B1: the binding result is given as “binds”.

The record behind these values is publication PMC9960487, “A novel Menin-MLL1 inhibitor, DS-1594a, prevents the progression of acute leukemia with rearranged MLL1 or mutated NPM1” (Cancer Cell International, 2023).
